Laboratory results reported in patent publication US20180318392A1.
These are yes or no findings as the source states them, for the method shown. In cells and extracts the contact can be indirect. Some entries that bind do so weakly or less than the wild type.

The chains behind the UniProt entries cited, without tags or fusion partners. Where a name states a change or a piece, a line headed by the entry shows the natural chain unless it says otherwise. Residues count along the entry.
UniProt P07204, residues 19-515: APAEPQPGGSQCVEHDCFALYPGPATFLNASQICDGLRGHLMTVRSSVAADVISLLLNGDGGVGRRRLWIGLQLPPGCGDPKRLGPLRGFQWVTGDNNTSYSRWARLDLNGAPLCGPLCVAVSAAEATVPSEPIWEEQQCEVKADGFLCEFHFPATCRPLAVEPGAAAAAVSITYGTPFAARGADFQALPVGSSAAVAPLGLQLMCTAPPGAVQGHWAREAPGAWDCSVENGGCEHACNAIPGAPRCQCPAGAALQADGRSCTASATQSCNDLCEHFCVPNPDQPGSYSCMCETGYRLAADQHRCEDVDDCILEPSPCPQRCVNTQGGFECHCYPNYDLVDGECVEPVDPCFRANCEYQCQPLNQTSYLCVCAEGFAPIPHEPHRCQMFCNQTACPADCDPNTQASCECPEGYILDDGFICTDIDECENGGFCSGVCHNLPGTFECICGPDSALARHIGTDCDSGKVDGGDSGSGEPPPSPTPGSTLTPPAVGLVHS
UniProt Q15389, residues 16-498: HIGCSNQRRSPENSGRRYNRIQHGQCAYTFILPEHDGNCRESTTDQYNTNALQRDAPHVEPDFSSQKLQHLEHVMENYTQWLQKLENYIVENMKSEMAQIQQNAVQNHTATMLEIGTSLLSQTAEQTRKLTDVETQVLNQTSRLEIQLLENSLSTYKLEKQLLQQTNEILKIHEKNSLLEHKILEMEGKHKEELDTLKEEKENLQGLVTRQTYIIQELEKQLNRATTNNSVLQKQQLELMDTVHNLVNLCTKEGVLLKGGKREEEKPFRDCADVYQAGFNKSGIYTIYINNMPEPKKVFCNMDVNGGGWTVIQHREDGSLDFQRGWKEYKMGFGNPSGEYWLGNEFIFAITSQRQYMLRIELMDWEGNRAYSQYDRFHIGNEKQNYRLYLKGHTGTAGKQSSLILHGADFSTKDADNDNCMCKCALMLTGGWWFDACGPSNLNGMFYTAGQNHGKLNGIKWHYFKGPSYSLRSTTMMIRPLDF
UniProt O15123, residues 19-496: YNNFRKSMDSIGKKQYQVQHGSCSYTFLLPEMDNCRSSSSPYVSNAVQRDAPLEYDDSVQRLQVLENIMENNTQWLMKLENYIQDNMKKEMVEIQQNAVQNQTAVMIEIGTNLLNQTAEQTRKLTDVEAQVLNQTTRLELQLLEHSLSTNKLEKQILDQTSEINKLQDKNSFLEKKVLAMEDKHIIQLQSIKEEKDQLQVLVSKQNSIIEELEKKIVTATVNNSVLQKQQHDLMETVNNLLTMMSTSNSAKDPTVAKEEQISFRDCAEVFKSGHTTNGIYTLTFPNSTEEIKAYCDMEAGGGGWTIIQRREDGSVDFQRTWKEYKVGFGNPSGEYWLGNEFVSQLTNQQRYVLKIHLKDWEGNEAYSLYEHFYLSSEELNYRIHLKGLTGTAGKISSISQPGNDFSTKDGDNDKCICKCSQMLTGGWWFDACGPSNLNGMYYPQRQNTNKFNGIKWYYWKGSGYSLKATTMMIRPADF
UniProt Q02763: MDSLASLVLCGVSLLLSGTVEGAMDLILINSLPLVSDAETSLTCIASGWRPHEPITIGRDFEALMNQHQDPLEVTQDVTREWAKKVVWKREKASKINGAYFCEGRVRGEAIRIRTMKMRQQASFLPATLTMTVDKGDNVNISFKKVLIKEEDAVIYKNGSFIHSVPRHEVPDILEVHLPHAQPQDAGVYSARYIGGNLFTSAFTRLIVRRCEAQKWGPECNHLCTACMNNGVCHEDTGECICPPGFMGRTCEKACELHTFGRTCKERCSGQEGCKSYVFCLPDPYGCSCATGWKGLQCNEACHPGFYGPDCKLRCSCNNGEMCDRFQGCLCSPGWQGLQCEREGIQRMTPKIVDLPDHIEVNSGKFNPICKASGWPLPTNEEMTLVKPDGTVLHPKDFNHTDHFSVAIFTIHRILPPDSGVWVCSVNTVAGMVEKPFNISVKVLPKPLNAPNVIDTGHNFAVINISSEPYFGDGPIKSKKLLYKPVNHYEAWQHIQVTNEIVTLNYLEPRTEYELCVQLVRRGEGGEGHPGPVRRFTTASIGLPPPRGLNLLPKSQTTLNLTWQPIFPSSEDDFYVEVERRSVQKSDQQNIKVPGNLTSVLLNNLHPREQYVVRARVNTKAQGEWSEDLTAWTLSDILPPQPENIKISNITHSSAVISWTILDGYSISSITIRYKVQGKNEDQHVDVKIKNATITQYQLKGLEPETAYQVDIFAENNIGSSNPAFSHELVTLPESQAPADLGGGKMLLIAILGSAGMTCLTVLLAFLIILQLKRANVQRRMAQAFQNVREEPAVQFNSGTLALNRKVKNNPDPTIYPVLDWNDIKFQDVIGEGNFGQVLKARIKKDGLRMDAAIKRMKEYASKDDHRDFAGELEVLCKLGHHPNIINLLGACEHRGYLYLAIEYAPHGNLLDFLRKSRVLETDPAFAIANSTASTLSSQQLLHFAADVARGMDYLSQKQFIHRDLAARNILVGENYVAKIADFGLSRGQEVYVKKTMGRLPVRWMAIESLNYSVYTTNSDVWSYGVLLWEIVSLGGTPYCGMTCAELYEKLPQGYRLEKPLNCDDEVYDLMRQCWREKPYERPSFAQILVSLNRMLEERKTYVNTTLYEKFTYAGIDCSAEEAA

Assays:
[1] = target: soluble extracellular domain of human TM (R&D Systems) (human) (UniProt P07204); assay: competition pull-down, western blot (FIG. 4A legend)
[2] = target: soluble extracellular domain of human TM (R&D Systems) (human) (UniProt P07204); assay: competition pull-down, 0.25, 0.5 or 1.0 µM Ang1 against 5 nM thrombin (competitor) on 100 nM His-tagged soluble TM, western blot
[3] = target: soluble extracellular domain of human TM (R&D Systems) (human) (UniProt P07204); assay: competition pull-down, 0.25, 0.5 or 1.0 µM Ang2 against 5 nM thrombin (competitor) on 100 nM His-tagged soluble TM, western blot
[4] = target: soluble extracellular domain of human TM (R&D Systems) (human) (UniProt P07204); assay: competition pull-down, western blot (FIG. 4B legend)
BowAng2 [5] = assay: pull-down competition, 2 µM soluble Tie2 against 100 nM soluble TM (competitor), western blot
BowAng1 [6] = assay: as above
BowAng2 [7] = assay: pull-down competition, western blot (FIG. 1C legend)
BowAng1 [8] = assay: as above

**Q.** What does the source list for “native human Ang1 (R&D Systems) (from UniProt Q15389 16-498) (ligand)”?
**A.** binding [1]: binds; binding [2]: binds

**Q.** How did the binding [3] turn out when “native human Ang2 (R&D Systems) (from UniProt O15123 19-496) (ligand)” was run?
**A.** binds

**Q.** What about the binding [4] of the same substance?
**A.** binds

**Q.** How did the binding (BowAng2 [5]) turn out when “soluble extracellular domain of human Tie2 (produced at Regeneron) (from UniProt Q02763 23-748) (receptor)” was run?
**A.** binds

**Q.** And the binding (BowAng1 [6])?
**A.** binds

**Q.** And the binding (BowAng2 [7])?
**A.** binds

**Q.** What about the binding (BowAng1 [8]) of the same substance?
**A.** binds
